Source: the supplement of paper PMC10849652
Some of the results follow.

Amino acid sequences for entries named in this document (tags omitted). A change or cut given only in a name is not applied to a line headed by its entry.
UniProt Q9NWZ8: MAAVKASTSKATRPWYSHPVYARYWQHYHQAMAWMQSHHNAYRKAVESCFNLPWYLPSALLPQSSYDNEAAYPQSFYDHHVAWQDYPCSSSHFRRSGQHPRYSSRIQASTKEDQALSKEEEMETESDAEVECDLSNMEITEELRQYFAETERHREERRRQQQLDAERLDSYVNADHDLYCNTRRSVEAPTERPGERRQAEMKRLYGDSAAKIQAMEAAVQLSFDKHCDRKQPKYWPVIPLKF
UniProt Q9H840: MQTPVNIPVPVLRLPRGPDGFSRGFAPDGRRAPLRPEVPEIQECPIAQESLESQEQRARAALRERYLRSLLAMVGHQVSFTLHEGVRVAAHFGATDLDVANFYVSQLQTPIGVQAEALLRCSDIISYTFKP
UniProt Q8IWF2: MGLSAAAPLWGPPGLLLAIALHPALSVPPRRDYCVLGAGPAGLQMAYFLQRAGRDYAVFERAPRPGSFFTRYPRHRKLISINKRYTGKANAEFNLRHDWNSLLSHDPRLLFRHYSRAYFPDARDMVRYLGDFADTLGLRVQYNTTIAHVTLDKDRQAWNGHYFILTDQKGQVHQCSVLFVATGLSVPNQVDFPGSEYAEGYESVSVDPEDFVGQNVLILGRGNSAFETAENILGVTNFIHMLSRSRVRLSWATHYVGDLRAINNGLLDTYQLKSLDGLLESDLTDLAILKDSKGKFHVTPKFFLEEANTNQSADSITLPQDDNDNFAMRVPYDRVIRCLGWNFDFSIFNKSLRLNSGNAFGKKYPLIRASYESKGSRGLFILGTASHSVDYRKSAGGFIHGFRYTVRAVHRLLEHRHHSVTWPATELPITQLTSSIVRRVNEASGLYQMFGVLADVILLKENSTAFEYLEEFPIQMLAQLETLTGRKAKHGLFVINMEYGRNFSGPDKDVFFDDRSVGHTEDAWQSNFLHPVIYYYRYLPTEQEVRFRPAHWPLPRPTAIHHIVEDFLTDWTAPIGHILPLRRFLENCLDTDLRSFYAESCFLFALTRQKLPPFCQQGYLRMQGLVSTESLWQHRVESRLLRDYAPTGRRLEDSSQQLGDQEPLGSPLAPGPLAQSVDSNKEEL
UniProt P06241, whole entry, looked up: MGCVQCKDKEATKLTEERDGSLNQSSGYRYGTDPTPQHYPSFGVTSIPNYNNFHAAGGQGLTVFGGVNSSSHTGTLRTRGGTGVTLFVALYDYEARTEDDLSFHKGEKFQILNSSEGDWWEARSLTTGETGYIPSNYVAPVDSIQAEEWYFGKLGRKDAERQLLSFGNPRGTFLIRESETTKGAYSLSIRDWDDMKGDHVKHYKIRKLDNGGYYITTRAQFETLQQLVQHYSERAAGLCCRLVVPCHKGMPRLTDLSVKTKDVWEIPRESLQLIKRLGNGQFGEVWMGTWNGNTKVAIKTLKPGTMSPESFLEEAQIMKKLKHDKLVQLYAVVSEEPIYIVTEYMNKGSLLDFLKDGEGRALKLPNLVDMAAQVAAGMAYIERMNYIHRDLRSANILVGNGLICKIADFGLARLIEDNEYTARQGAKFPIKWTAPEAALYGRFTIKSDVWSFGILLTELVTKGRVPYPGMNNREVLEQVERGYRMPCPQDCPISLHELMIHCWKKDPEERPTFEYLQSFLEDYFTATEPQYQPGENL
UniProt Q14393: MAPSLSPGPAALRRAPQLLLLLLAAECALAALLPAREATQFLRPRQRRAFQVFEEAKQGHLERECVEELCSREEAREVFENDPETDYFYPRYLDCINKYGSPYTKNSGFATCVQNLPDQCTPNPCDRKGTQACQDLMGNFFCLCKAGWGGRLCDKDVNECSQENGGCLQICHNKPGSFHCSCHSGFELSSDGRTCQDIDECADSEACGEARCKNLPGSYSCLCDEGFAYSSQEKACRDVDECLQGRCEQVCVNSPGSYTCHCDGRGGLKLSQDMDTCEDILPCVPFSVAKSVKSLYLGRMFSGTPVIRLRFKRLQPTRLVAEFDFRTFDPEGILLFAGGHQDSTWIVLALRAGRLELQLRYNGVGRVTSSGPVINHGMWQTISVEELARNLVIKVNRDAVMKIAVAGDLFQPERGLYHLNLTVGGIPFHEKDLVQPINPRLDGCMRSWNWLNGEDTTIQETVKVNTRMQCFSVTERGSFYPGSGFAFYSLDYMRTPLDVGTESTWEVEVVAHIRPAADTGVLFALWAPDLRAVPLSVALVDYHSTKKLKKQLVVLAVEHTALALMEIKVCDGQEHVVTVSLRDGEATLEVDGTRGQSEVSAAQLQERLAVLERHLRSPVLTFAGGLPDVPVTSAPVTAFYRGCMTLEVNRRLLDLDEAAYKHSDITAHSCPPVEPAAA
UniProt Q13467, whole entry, looked up: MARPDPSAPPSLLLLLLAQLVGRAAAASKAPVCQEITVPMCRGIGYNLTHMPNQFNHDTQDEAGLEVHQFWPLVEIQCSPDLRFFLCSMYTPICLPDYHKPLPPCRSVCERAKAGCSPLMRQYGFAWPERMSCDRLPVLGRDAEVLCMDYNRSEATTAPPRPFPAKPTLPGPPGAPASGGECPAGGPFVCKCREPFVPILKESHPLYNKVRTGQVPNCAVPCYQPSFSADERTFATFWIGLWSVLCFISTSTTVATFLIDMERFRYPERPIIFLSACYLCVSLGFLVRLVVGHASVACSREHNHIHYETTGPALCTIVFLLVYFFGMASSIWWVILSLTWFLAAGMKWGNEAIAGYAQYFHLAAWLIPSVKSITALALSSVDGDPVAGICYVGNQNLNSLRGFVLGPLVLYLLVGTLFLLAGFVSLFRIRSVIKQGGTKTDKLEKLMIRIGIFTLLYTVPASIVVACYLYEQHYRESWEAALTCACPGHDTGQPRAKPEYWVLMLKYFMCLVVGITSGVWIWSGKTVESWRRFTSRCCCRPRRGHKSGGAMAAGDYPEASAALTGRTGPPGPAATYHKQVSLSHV
UniProt Q8TAK5: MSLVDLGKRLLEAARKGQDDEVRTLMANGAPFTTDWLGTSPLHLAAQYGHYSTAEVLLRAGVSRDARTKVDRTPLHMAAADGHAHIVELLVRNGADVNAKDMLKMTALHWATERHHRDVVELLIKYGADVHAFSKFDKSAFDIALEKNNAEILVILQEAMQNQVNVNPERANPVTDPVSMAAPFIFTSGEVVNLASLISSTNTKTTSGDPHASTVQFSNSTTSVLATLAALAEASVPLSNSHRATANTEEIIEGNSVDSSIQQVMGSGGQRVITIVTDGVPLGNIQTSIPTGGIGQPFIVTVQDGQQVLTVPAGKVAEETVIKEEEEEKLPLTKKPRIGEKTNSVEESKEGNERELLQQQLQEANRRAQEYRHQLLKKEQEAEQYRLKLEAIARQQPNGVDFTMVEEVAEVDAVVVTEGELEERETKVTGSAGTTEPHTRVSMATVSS
UniProt Q9BYC5: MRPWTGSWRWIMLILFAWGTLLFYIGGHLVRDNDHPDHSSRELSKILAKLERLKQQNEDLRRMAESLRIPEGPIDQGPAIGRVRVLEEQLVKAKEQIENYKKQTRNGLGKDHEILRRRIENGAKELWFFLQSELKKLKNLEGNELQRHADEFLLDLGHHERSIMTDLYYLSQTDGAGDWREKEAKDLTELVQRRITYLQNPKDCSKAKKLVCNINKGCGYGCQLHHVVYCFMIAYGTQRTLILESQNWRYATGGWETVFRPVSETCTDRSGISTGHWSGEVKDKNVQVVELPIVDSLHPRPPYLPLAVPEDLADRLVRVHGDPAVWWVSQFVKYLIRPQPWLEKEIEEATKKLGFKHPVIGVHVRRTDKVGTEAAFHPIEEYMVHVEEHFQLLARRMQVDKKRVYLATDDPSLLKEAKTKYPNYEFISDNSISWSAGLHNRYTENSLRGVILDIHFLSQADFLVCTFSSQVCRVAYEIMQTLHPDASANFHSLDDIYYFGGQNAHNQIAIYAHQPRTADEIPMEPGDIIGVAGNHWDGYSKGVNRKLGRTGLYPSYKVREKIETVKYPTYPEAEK
UniProt Q86SR1: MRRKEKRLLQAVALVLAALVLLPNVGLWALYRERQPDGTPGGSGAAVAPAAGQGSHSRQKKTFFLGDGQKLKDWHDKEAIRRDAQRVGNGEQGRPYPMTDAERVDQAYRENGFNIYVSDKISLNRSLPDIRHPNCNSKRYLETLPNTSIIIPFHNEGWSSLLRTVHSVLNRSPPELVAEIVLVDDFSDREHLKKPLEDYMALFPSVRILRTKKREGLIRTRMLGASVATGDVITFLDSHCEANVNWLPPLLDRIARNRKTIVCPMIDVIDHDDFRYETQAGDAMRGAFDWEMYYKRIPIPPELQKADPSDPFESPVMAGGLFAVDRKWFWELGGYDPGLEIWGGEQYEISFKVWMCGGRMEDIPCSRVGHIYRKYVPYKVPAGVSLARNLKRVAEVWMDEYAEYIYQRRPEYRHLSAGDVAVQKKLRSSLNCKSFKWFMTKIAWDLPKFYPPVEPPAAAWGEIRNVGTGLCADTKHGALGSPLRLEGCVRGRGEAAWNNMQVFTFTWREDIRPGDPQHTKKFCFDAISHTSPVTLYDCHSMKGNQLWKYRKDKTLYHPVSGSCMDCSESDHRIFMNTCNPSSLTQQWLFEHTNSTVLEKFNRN
UniProt Q8WTR4: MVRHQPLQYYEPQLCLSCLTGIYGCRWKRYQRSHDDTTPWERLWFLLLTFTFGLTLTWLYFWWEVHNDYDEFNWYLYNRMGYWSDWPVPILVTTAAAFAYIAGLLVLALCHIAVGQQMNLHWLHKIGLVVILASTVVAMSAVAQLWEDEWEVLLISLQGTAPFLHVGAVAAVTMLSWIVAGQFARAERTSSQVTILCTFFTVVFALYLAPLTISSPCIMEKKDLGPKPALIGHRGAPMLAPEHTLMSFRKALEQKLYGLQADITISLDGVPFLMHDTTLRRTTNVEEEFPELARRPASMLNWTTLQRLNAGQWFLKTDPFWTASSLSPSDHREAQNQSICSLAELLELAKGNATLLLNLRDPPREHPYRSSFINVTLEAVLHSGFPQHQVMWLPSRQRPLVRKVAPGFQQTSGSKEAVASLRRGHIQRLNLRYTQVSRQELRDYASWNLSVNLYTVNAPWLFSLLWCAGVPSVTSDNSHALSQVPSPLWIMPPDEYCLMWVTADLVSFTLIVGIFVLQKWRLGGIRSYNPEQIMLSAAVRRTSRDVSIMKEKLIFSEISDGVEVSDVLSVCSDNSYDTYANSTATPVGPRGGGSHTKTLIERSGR
UniProt Q8TB36: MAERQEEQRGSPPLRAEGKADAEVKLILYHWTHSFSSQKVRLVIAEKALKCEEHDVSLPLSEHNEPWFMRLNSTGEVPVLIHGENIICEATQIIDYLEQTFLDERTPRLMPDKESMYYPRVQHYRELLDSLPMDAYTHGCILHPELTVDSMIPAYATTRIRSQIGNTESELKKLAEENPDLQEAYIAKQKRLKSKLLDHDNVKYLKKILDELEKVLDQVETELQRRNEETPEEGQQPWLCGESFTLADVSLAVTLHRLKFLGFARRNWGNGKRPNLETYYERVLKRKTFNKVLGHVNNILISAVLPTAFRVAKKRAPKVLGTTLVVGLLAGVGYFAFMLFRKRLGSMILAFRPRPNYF
UniProt Q14435: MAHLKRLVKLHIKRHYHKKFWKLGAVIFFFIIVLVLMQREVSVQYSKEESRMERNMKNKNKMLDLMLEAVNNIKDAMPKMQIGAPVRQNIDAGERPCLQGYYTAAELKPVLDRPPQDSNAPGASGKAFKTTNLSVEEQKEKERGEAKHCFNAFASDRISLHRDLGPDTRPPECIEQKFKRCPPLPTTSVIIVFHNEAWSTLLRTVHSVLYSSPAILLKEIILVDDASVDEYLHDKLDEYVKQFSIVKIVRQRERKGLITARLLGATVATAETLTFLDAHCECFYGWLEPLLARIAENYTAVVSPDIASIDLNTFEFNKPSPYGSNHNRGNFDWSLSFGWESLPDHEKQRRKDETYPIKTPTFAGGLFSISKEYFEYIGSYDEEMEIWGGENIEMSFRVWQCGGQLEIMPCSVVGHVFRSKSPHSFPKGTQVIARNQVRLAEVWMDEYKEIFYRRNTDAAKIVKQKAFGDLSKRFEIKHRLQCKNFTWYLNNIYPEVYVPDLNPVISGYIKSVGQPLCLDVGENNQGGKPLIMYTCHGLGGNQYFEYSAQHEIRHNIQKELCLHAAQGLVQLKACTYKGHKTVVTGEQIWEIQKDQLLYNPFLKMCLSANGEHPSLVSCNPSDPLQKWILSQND
UniProt Q3B7J2: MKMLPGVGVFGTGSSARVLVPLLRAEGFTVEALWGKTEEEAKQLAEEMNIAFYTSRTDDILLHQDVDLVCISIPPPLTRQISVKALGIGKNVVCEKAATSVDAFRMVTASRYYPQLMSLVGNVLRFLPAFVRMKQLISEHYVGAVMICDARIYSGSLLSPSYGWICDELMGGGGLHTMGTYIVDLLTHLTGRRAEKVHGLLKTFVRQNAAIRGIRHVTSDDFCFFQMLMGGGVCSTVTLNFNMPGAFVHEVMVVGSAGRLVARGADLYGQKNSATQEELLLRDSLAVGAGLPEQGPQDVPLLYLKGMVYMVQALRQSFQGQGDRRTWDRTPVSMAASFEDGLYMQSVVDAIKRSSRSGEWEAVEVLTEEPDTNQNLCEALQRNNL

How the values were obtained:
Assay in all cases: log2 fold change, soluble protein after heating vs DMSO (PISA); higher = thermal stabilisation; K562 lysate, 10 uM; active = over 0.2 and 3.5 SD of the protein, either way, in both replicates (recomputed)
nilotinib = compound: Cc1cn(-c2cc(NC(=O)c3ccc(C)c(Nc4nccc(-c5cccnc5)n4)c3)cc(C(F)(F)F)c2)cn1 [nilotinib]
How it was run: (§1)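 Values give the log-two fold change in thermal stability against solvent controls, from duplicates. Crude K562 extract at 1 mg/mL protein, made by dounce homogenisation in PBS pH 7.4 with 1 mM MgCl2, was treated with 10 μM compound for 30 min. After 3 min heating across 48°C-58°C, aliquots were pooled, adjusted to 0.5% NP-40 at 4°C and centrifuged at 21,000xg for 90 min. The supernatant was measured by TMTpro 16plex LC-MS/MS with channel sums equalised.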

[1] = compound: Cc1nc(Nc2n[nH]c3c2CN(C(=O)N[C@H](CN(C)C)c2ccccc2)C3(C)C)c2sccc2n1
How it was run: as §1

[2] = compound: Cc1ncc(-c2ccnc(Nc3ccc(S(C)(=O)=O)cc3)n2)n1C(C)C
How it was run: as §1

tipifarnib = compound: Cn1cncc1[C@@](N)(c1ccc(Cl)cc1)c1ccc2c(c1)c(-c1cccc(Cl)c1)cc(=O)n2C [tipifarnib]
How it was run: as §1

[3] = compound: NC(=O)c1cnc(N[C@@H]2CCCC[C@@H]2N)nc1Nc1cccc(-n2nccn2)c1
How it was run: as §1

[4] = compound: NC1(c2ccc(-c3nc4ccn5c(=O)[nH]nc5c4cc3-c3ccccc3)cc2)CCC1
How it was run: as §1

vorinostat = compound: O=C(CCCCCCC(=O)Nc1ccccc1)NO [vorinostat]
How it was run: as §1

silmitasertib = compound: O=C(O)c1ccc2c(c1)nc(Nc1cccc(Cl)c1)c1ccncc12 [silmitasertib]
How it was run: as §1

[5] = compound: NCC(=O)Nc1ccc(-n2nc(C(F)(F)F)cc2-c2ccc3c(ccc4ccccc43)c2)cc1
How it was run: as §1

entospletinib = compound: c1cn2cc(-c3ccc4cn[nH]c4c3)nc(Nc3ccc(N4CCOCC4)cc3)c2n1 [entospletinib]
How it was run: as §1

quisinostat = compound: Cn1cc(CNCC2CCN(c3ncc(C(=O)NO)cn3)CC2)c2ccccc21 [quisinostat]
How it was run: as §1

[6] = compound: NC(=O)Nc1cc(-c2cccc(F)c2)sc1C(=O)N[C@H]1CCCNC1
How it was run: as §1

[7] = compound: O=C1NC(=O)C(c2cnc3ccccn23)=C1c1cn2c3c(cc(F)cc13)CN(C(=O)N1CCCCC1)CC2
How it was run: as §1

dasatinib = compound: Cc1nc(Nc2ncc(C(=O)Nc3c(C)cccc3Cl)s2)cc(N2CCN(CCO)CC2)n1 [dasatinib]
How it was run: as §1

[8] = compound: Cn1cc(-c2ccc3c(c2)CCN3C(=O)Cc2cccc(C(F)(F)F)c2)c2c(N)ncnc21
How it was run: as §1

Measured: log2 fold change

GCA (UniProt P28676)
active: vorinostat 1.36
inactive: nilotinib 0.071 | [1] -0.11 | [2] 0.096 | tipifarnib -0.141 | [3] -0.118 | [4] -0.017 | silmitasertib -0.104

FRMPD2 (UniProt Q68DX3)
inactive: nilotinib -0.126 | [1] 0.11 | [2] 0.09 | tipifarnib 0.021 | [3] -0.08 | [4] -0.419 | [5] 0.05 | vorinostat -0.091 | silmitasertib 0.156 | entospletinib -0.008

GEMIN8 (UniProt Q9NWZ8)
inactive: nilotinib 0.102 | [1] 0.063 | [2] -0.018 | quisinostat -0.088 | tipifarnib -0.025 | [6] 0.074 | [3] -0.028 | [4] -0.012 | [5] -0.001 | vorinostat -0.155 | silmitasertib 0.052 | [7] 0.039 | entospletinib 0.036

GEN1 (UniProt Q17RS7)
inactive: nilotinib -0.047 | [1] 0.23 | dasatinib 0.14 | [2] 0.004 | [8] -0.25 | quisinostat -0.222 | tipifarnib -0.204 | [6] 0.044 | [5] -0.023 | [7] 0.188 | entospletinib -0.047

GEMIN7 (UniProt Q9H840)
inactive: nilotinib -0.116 | [1] 0.055 | [2] 0.133 | quisinostat 0.123 | tipifarnib 0.059 | [6] -0.056 | [7] 0.068

FOXRED2 (UniProt Q8IWF2)
inactive: nilotinib -0.036 | [1] 0.101 | dasatinib 0.103 | [2] -0.136 | [8] -0.028 | quisinostat -0.022 | tipifarnib 0.044 | [6] 0.039 | [4] -0.036 | [5] 0.003 | vorinostat 0.01 | silmitasertib 0.013 | [7] -0.058 | entospletinib -0.006

GDI2 (UniProt Q5SX86)
inactive: nilotinib -0.127 | [1] -0.005 | dasatinib -0.112 | [2] 0.207 | [8] 0.043 | tipifarnib 0.053 | [3] -0.112 | [4] 0.09 | [5] -0.126 | vorinostat -0.031 | silmitasertib 0.066

GBA2 (UniProt Q9HCG7)
inactive: nilotinib -0.063 | [1] 0.114 | dasatinib 0.059 | [2] -0.079 | [8] 0.034 | quisinostat -0.101 | tipifarnib -0.213 | [6] 0.023 | [3] 0.058 | [4] -0.074 | vorinostat -0.089 | silmitasertib -0.004 | [7] -0.091 | entospletinib -0.102

G3BP2 isoform 2 (UniProt Q9UN86)
inactive: dasatinib 0.159 | [8] 0.299 | quisinostat 0.106 | [6] 0.01 | [3] -0.052 | [7] -0.103

FYN (UniProt P06241)
inactive: dasatinib 0.02 | [8] 0.004 | quisinostat 0.022 | [6] -0.029 | [3] -0.025 | [4] 0.043 | [5] -0.047 | vorinostat 0.091 | silmitasertib -0.001 | [7] -0.027 | entospletinib 0.156

GAS6 isoform 1 (UniProt Q14393)
inactive: quisinostat 0 | [6] 0.318 | [3] 0.036 | [4] 0.146 | vorinostat 0.018 | silmitasertib 0 | [7] -0.483 | entospletinib -0.086

FZD5 (UniProt Q13467)
inactive: dasatinib 0.077 | [8] 0.074 | [3] 0.031

FUT1 (UniProt P19526)
inactive: quisinostat -0.013 | [6] 0.008 | [7] 0.007

GABPB2 (UniProt Q8TAK5)
inactive: dasatinib 0.011 | [8] -0.005 | quisinostat -0.109 | [6] 0.023 | [7] -0.023 | entospletinib -0.134

FOXO3B, A0A2Z4LIS9
inactive: dasatinib -0.004 | [8] 0.04 | [5] -0.01

FUT8 (UniProt Q9BYC5)
inactive: [3] -0.019 | [4] 0.071 | vorinostat 0.207 | silmitasertib -0.255 | entospletinib 0.074

GBP2 (UniProt P32456)
inactive: dasatinib 0.222 | [8] -0.096 | quisinostat -0.106 | [6] 0.033 | [3] 0.067 | [4] 0.161 | vorinostat 0.242 | silmitasertib -0.059 | [7] -0.047 | entospletinib -0.063

GARS1 (UniProt H7C443)
inactive: [3] 0.005

GFOD1 (UniProt Q9NXC2)
inactive: [3] 0.021 | [4] 0.18 | vorinostat -0.061 | silmitasertib -0.058

GALNT4 (UniProt Q8N4A0)
inactive: dasatinib -0.081 | [8] 0.119 | quisinostat 0.064 | [6] -0.077 | [3] -0.123 | [5] 0.004 | [7] -0.149 | entospletinib -0.056

GAB3 isoform 2 (UniProt Q8WWW8)
inactive: dasatinib 0.167 | [8] 0.04 | quisinostat -0.002 | [6] -0.036 | [7] -0.042 | entospletinib -0.062

GALNT10 (UniProt Q86SR1)
inactive: dasatinib -0.048 | [8] 0.087 | [3] -0.063 | [4] -0.092 | [5] -0.053 | vorinostat -0.017 | silmitasertib -0.36 | entospletinib -0.088

GDPD5 (UniProt Q8WTR4)
inactive: quisinostat -0.034 | [6] 0.011 | [5] -0.041 | [7] 0.085

FSCN2 isoform 2 (UniProt O14926)
inactive: quisinostat 0.25 | [6] -0.035 | [5] -0.013 | [7] -0.099 | entospletinib 0.066

FOXL2 (UniProt P58012)
inactive: dasatinib 0.023 | [8] -0.013 | [3] -0.15 | [4] 0.076 | vorinostat -0.501 | silmitasertib -0.027 | entospletinib -0.352

GABPB1 isoform 3 (UniProt Q06547)
inactive: dasatinib -0.086 | [8] 0.034 | quisinostat -0.017 | [6] -0.012 | [3] -0.037 | [4] -0.016 | [5] -0.012 | silmitasertib 0.08 | [7] 0.067 | entospletinib -0.024
active: vorinostat -0.41

GDAP1 (UniProt Q8TB36)
inactive: dasatinib 0.153 | [8] -0.056 | quisinostat 0.059 | [6] 0.009 | [3] -0.011 | [4] -0.082 | [5] -0.092 | vorinostat 0.207 | silmitasertib 0.021 | [7] -0.048 | entospletinib 0.039

FYTTD1 (UniProt Q96QD9)
inactive: dasatinib -0.044 | [8] 0.052 | quisinostat -0.071 | [6] 0.029 | [4] 0.032 | [5] -0.142 | vorinostat -0.064 | silmitasertib 0.008 | [7] 0.01 | entospletinib 0.01

GALNT3 (UniProt Q14435)
inactive: quisinostat 0.078 | [6] 0.035 | [7] 0.12 | entospletinib -0.1

GAPVD1 (UniProt Q14C86)
inactive: [3] -0.023

FRAS1 isoform 2 (UniProt Q86XX4)
inactive: dasatinib -0.004 | [8] 0.051 | quisinostat -0.361 | [6] 0.12 | [5] 0.092 | [7] 0.011

FTSJ1 isoform 2 (UniProt Q9UET6)
inactive: [3] -0.019 | [5] -0.109 | entospletinib 0.047

Pulled one by one from the entries so far, two records:
FOXO3B, A0A2Z4LIS9
inactive: dasatinib -0.004 | [8] 0.04 | [5] -0.01

G3BP2 isoform 2 (UniProt Q9UN86)
inactive: dasatinib 0.159 | [8] 0.299 | quisinostat 0.106 | [6] 0.01 | [3] -0.052 | [7] -0.103

Additional results follow:

GDE1 (UniProt Q9NZC3)
inactive: dasatinib 0.012 | [8] -0.012 | quisinostat 0.085 | [6] 0.029 | [3] -0.02 | [4] -0.022 | vorinostat -0.007 | silmitasertib 0.006 | [7] 0.04 | entospletinib -0.162

GALNT7 (UniProt H0YAH3)
inactive: nilotinib 0.078 | [1] -0.261 | [2] 0.048 | tipifarnib -0.034 | [4] -0.008 | [5] 0.151 | vorinostat -0.017 | silmitasertib -0.034 | entospletinib 0.025

GC isoform 3 (UniProt P02774)
inactive: dasatinib 0.044 | [8] -0.114 | quisinostat 0.175 | [6] -0.076 | [5] -0.058 | [7] 0.076 | entospletinib -0.053

FUS (UniProt H3BPE7)
inactive: dasatinib 0.053 | [8] -0.043

GAGE1 (UniProt Q13065)
inactive: [3] 0.052 | entospletinib -0.06

FRAT1 (UniProt Q92837)
inactive: dasatinib 0.022 | [8] 0.173 | [5] -0.175 | entospletinib 0.072

GANC (UniProt Q8TET4)
inactive: dasatinib -0.177 | [8] -0.166 | quisinostat 0.09 | [6] -0.006 | [3] 0.111 | [4] -0.067 | vorinostat 0.045 | silmitasertib -0.005 | [7] -0.506 | entospletinib -0.013

GFOD2 (UniProt Q3B7J2)
inactive: dasatinib 0.201 | [8] 0.139 | [3] 0.026 | [4] -0.232 | [5] -0.092 | vorinostat 0.188 | silmitasertib 0.006 | entospletinib -0.191

GATM (UniProt P50440)
inactive: entospletinib 0.458
